No constants are given. Whether binding was seen depends on the method and setting. Binding seen in cells or lysates may run through a third protein. Some binding calls cover weakened binding; strength is not graded here. Sequences can lack the tags named with a protein.
What was measured:
[1] = target: GST fused to the C-terminal kinase domain of normal NIK1 (NSP-interacting kinase 1) (Arabidopsis thaliana) (UniProt Q9LFS4); assay: pull-down; GST-KDNIK1, GST-T474D or GST previously linked to glutathione-Sepharose beads and incubated with bacterially produced His-NSP; retained proteins analysed by Coomassie-stained SDS-PAGE
[2] = target: GST fused to the NIK1 kinase domain with Thr-474 replaced by aspartate (Arabidopsis thaliana) (UniProt Q9LFS4); assay: as above

Amino acid sequences for entries named in this document (tags omitted). A change or cut given only in a name is not applied to a line headed by its entry. Chains listed by the source or under a name are the forms on record and can include a tag or linker. Residues count along the entry.
GST fused to the C-terminal kinase domain of normal NIK1 (NSP-interacting kinase 1) (Q9LFS4, residues 297-638): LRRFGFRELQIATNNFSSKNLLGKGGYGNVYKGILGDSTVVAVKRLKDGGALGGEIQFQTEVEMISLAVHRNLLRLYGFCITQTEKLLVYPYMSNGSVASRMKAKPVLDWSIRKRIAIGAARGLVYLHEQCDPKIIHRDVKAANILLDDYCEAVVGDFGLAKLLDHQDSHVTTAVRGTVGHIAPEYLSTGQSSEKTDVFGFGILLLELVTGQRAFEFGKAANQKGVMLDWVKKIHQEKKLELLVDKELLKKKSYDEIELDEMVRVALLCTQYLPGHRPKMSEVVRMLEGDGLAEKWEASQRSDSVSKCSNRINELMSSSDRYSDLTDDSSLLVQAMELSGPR
GST fused to the NIK1 kinase domain with Thr-474 replaced by aspartate (Q9LFS4, form named): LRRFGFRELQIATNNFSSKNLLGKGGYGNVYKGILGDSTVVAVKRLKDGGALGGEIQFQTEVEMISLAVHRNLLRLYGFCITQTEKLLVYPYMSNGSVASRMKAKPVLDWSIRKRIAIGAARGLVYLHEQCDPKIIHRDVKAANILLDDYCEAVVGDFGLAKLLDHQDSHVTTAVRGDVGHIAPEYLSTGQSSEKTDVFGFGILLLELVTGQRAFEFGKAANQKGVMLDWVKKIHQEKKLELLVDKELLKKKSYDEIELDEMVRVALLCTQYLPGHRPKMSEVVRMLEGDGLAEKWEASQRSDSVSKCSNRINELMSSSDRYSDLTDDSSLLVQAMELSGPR

B1: His-tagged nuclear shuttle protein (NSP) of Cabbage leaf curl virus (CaLCuV) (protein, UniProt Q96706 1-256)
chain: MYPTKFRRGVSYSQRRFVSRNQSSKRGTFVRRTDGKRRKGPSSKAHDEPKMKLQRIHENQYGPEFVMTHNSALSTFINFPVLGKIEPNRSRSYIKLNRLSFKGTVKIERVHADVNMDGVISKIEGVFSLVIVVDRKPHLSSTGGLHTFDEIFGARIHSHGNLAITPGLKDRYYVLHVLKRVLSVEKDTLMVDLEGSTTISNRRYNCWASFNDLEHDLCNGVYANISKNAILVYYCWMSDAMSKASTFVSYDLDYLG
binding [1]: binds | binding [2]: binds

Reference: paper PMC2686266
